# Measurements: patent US8440671B2, “Compositions comprising a phoshodiesterase-5 inhibitor and their use in methods of treatment” (priority 2007, dated 2013)
# At least one compound was matched to its structure with a doubt left.
# System: subject with rapidly progressive multi-system neurodegenerative disease, facial acne, vitiligo, gingival infections
# Assay type: in vivo
# Details: each drug given individually
# Description: A second subject was diagnosed with nonspecific but rapidly progressive multi-system neurodegenerative disease. […] Initial presentation was with abrupt onset dementia with rapid progression over 3-4 months. Severe, generalized myoclonus of high amplitude with ataxia, dyspahagia, central and peripheral respiratory distress (requiring CPAP), dizziness, and hypokinetic rigidity followed some one month later and have continued to progress as well as dementia.
# Mild intermittent gingival infections requiring minimal surgical intervention with retraction from tooth line for over ten years.
# Patient was a non-smoker with no alcohol or other drug consumption. Patient suffered from coexisting prior problem of chronic atrial fibrillation, currently rate controlled with exercise alone and anticoagulation intermittently with Coumadin.
# The twenty four hour doses, put into 7.5 cc of water solution, was also applied topically to scar noted previously. […] Patient also takes Folic acid—1 mg per day, and Vitamin B6.
compound,measurement,value
"CN1CC(=O)N2[C@H](c3ccc4c(c3)OCO4)c3[nH]c4ccccc4c3C[C@@H]2C1=O [CIALIS® (tadalafil), tadalafil]","clinical response to neurological disease, skin and mucous membrane disorders",without any clinical response
